Reference: paper doi:10.1101/2025.08.19.671066
No constants are given. Whether binding was seen depends on the method and setting. Some results given as binding are weak or reduced against the parent protein; the word gives no strength.

By UniProt entry, the sequences of proteins in these tests, tags left out.
UniProt P50536: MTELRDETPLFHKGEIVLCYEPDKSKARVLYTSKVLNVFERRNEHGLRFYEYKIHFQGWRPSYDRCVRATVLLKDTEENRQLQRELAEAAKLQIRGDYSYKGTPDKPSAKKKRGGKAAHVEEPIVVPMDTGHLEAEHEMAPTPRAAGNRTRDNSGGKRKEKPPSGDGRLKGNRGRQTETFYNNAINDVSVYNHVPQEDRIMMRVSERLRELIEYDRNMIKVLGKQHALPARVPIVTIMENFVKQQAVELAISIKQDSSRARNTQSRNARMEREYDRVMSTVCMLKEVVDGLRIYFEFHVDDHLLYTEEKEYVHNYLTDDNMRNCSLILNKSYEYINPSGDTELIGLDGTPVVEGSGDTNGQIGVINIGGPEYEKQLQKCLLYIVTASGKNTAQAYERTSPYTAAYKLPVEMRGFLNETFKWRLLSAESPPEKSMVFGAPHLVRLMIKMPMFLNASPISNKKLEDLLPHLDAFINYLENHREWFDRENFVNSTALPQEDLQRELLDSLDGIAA

T1: Mof (UniProt O02193)
T1 sequence: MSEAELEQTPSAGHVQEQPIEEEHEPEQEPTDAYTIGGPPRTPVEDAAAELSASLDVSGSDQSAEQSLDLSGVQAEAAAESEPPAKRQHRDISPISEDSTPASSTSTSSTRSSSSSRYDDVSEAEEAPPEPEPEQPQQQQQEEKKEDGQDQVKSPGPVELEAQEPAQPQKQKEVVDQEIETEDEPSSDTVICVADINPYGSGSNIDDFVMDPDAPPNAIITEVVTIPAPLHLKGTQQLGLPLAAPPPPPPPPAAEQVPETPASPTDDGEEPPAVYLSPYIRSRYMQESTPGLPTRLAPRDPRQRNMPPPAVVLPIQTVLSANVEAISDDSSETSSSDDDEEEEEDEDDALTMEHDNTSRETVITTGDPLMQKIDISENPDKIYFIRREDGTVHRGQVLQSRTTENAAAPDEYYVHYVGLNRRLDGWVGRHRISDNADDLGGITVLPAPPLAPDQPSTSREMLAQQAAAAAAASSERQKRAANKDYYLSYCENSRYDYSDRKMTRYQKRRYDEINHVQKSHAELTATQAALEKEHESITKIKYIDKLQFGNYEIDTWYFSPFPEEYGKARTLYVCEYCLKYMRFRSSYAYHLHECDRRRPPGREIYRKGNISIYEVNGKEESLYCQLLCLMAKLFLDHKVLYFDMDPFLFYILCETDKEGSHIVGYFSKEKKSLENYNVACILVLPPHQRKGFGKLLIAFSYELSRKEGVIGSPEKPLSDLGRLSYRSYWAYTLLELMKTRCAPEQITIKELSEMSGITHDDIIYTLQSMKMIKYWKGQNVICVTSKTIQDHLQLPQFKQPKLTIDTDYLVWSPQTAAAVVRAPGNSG


Target: T1, Mof
Experiment: co-purification by affinity chromatography

Row | binding | Molecule
1 | binds | Msl3 (from UniProt P50536 1-512)
2 | binds | Msl2 (protein, UniProt P50534 1-773) MAQTAYLKVTRIAMRSASNLSKRRVEELNSGLGELRQLLSCVVCCQLLVDPYSPKGKRCQHNVCRLCLRGKKHLFPSCTQCEGCSDFKTYEENRMMAAQLLCYKTLCVHLLHSALFGELAGMRPQVARELVPRIKLPPKTTQEFIREGSNISDTFDIFLPQPDLPFLKDMPTSLPAETPPTSAVTTPELPYDHHLNISDIEAEAAATAEQGHFSPLPLLPTGSRMGMLSHAGQIVIATESSESGFMDQAWTDQVDLSGTVSVSKYTNSGNNFAVSYVMPTSATTKFDPQELQIGQVVQMADSTQLAVLAAVEETVETSTQLTVLSTTVEETVETSTQLEVLTSAEEPNEISDQLANLQVEESDEALVEETVEEAEGTSIPSEVVAEHMEEDQHLDVHTSQSPTQTEMEEAVEEHVATKTQLGHVQTELQDAESLQKDFEDAKAAAEEAKEKEKDLHAISAELQKEDSDEPTLKRKRTRTLKASQAAKIEPVPSEVKTKVQSGKGALRRIRGKDKEEKVKPPKPKCRCGISGSSNTLTTCRNSRCPCYKSYNSCAGCHCVCCKNPHKEDYVESDEDDDLEDFEMPKDVPEPMTQSEEPVVAEPRQEENSMAPPDSSAPISLVPLNNLQQSQHPLVLVQNEKGEYQGFNIFQGSKPLDPVTVGFTIRVQLQHTDGFGSLPQYAYIMPTIDPPNPPAPSLSPPPPPAPDREVIEPPAKKFRTSRTRRGRANFSALDTVDELVSGGSRSNSAAGDRSSATDNAHSLFEEIMSGSDDL
3 | binds | Msl1 (protein, UniProt P50535 1-1039) MDKRFKWPPKKRANYLESPYPHIPSRGRQRNLHGHPNQTQHLHQHPGKIYERQQYGNGRGGHGGGNNNYRKLLHSLPAEHGGGAMAPPSSGGTVCAGADMVKLISENNNLRRMVMLNLNLMQEQTDSIAAKDKELDDQSAKMSVVKAQNEELKQAVAQLEAANQELCKQLRRKNQRRNDNDDDDDDPPLPPAAPQQKLIRCHAETQTVFREREQGTQTIDAQPQFANALPRGINMKESPALDHHAGAVTNQPASKRSESKGRGEFNGKKVSTFILQRMNQDFEHHIHEQTEVAEEHEMEAHKEQISQEEDQLVAEEDHLHMQEVHTEEVVGGDIFHDALESIEMEVVTEELVDMEEHGQSVDANGHIEEDDDEDDEDDENSDKDDDSEEDDYPWMHSDADVNARTEEELWQNQNYLLELDPTEEKTCAPSAHSTPNHQQKSSTQAEIRKEGNQNRITEKLLQLKPEPMVDALEAPILPKWVAFKKKDKEHESVPESPEVPKQQPHQEDAIVDHNAIKNQLEVPKPDLKPKDQPKDEQRQDGQLDVRVEPQEDVRKVQKETLKRQPEDAPKHLPKAVAPKVTKTSSRESTLPKANTADIKDAPAQKVIANHQSTKTQTDPVKTQRLQVKIRQYEMHPDMRTGSSAPSDIRKQKNVDPVSTPETKTIKSKSMLVNDKKTTSETSQSPDQEIDVETVRRKLAEHLKKELLSQSHSSQVTLKKIRERVATNLIYPPPSAPVSSTTITPAPTPSTTPTPGSTPQHAVTSSMDQEISAAKSKSKAAEQIATPLTPQSNSSVSSTTSTIRKTLNNCSPHTYSKATARSGKLQSRFRTATFPYSTRTWEDQEFHCDNEFFLEEADELLADNPSLEIPKWRDVPVPPSSDKIDTELLSDATFERRHQKYVKDEVDRKCRDARYMKEQIRLEQLRMRRNQDEVLVALDPLRASTFYPLPEDIEAIQFVNEVTVQAFGENVVNMEARDDFGVPWVDAIEAPTSIARSKALAEPVATLASKKIPTTAAEARHQENHSSYVFPKRRKRQKNR
